# From the supplement of paper PMC5949888
# Most values lie at the floor of the assay. Slopes are relative: functional sequences can read slightly below zero.
# Test system: Saccharomyces cerevisiae PS128 hsf1 delta, HSF1(1-493) fusion
# Test: growth estimate (transactivation domain function in HSF1 fusion, heat-shock survival) (a.u. (slope of normalised read count over time)); higher = stronger growth at 37°C, i.e. more transactivation activity
# Conditions: library: random library
row,Substance,growth estimate
1,RWGGQCQPGQRVCSVVQQK,< -0.25
2,RWGGTVSGQW,< -0.25
3,RWGLCVSGERGGTSH,< -0.25
4,RWGRGI,< -0.25
5,RWGTHAEEPL,< -0.25
6,RWIQLGSMVGDLPVHPHGSE,< -0.25
7,RWKNDTVLDCYSDALAARGP,< -0.25
8,RWLSSL,< -0.25
9,RWMTFFL,< -0.25
10,RWNCCVMVSIIY,< -0.25
11,RWQFKGLR,< -0.25
12,RWRRIPKPIPRVEARFSSGY,< -0.25
13,RWSGRTSK,< -0.25
14,RWSKPLGGVPGAKLYNP,< -0.25
15,RWSLRMGVCSATDVE,< -0.25
16,RWSVFRLSRVNLSRRYESVD,< -0.25
17,RWSYMVIMYWCS,< -0.25
18,RWTRGREVLSVLECRCSCRR,< -0.25
19,RWVLEILTWVKRNAYYVPSC,< -0.25
20,RWVREFLVRPC,< -0.25
21,RWVSRSYGRDDYMASGLHDG,-0.246
22,RYA,< -0.25
23,RYARWRWRATPGSPDEPAP,< -0.25
24,RYAYGVQPTGPRLPRDARSH,-0.245
25,RYCPLESRFLGRVPIQYSVG,< -0.25

row,Substance,growth estimate
1,RYCRQGFCTRV,< -0.25
2,RYCVITID,< -0.25
3,RYEPRKSANLKLP,< -0.25
4,RYFMAACPFGRYLK,< -0.25
5,RYFTVVT,< -0.25
6,RYGCWEHHTKFVGMPFVLDR,< -0.25
7,RYGGMCFIRWEADSLCDIST,< -0.25
8,RYHVAGFGYGPDEYVDEPWD,< -0.25
9,RYILTRPACGATHAAEA,< -0.25
10,RYKDNSVTLGIDAVTASGLV,< -0.25
11,RYKNIDNSKQSTYIMSCRAR,< -0.25
12,RYL,< -0.25
13,RYLCVGTCAREHRRSTLGR,< -0.25
14,RYLRDPSCTECRGTWTGQNH,< -0.25
15,RYLRGSP,< -0.25
16,RYLVSALRMGIIPNTHISRV,< -0.25
17,RYNFQSG,< -0.25
18,RYNV,< -0.25
19,RYQLLRSPSGADV,< -0.25
20,RYQMEWDADSDDARTYSDSD,< -0.25
21,RYQQVMLTLNVLSG,< -0.25
22,RYRDLTREYGAGKQ,< -0.25
23,RYRSIVDVNVI,< -0.25
24,RYRSSHRK,< -0.25
25,RYSINITTALANGRNVSLAG,< -0.25

row,Substance,growth estimate
1,RYWLFADFA,< -0.25
2,RYWNFISNALSCLDAG,< -0.25
3,RYYVLLKPPVVLWDGRVHST,< -0.25
4,SAADSGKQETALNAPRTRSF,< -0.25
5,SAAMELGARKGPTCELSSMA,< -0.25
6,SAANSTNTSSVQ,< -0.25
7,SAAPCLGRDHLVPNPNGGLS,< -0.25
8,SAEGQANFY,< -0.25
9,SAEGRREPGVKEPLVAPARV,< -0.25
10,SAEYMLIGACSEFAKSGHVS,< -0.25
11,SAFCATAIYVQAFRLEKSAP,-0.243
12,SAG,< -0.25
13,SAGLILEVRAQPSLSNKSLR,< -0.25
14,SAGLLARKHA,< -0.25
15,SAGYQ,< -0.25
16,SAHRGHGLKSWNVTPLGTSE,< -0.25
17,SAIC,< -0.25
18,SAIGSHRMSGVTH,< -0.25
19,SAIGVVVQGFAHTSVLIHPP,< -0.25
20,SALGGRYPTQIGQCDRTAAR,< -0.25
21,SALLGLFLDLVPRAERSRCF,< -0.25
22,SALRCRGRTTKPHASLIPSI,< -0.25
23,SAMSLPRLQGDTPPWPRVAN,< -0.25
24,SAMSRTELGLPGCQRV,< -0.25
25,SANGEQDKLQCHLGSVNPPD,< -0.25

row,Substance,growth estimate
1,SANLIFEEGLSDWTGLHRME,< -0.25
2,SANSSFHGRLRVPRTSIS,< -0.25
3,SAPGWMGSGREGLLPSGRGT,< -0.25
4,SAPPPETGSGYIRSNMRCLR,< -0.25
5,SAPVSILARKPRVGVGWFRR,< -0.25
6,SAQGK,< -0.25
7,SARHKGFSFIDALQYAKLAR,< -0.25
8,SARMM,< -0.25
9,SARRKPVVTLKVRVKAL,< -0.25
10,SARSFYLSSNIWESWQYSKD,< -0.25
11,SARTKFRP,< -0.25
12,SASLIKVAHDAGSQRSLTIA,< -0.25
13,SASLVRVMMRSSPGIRS,< -0.25
14,SASLWTSTGLQTQ,< -0.25
15,SASRPRVSVSTFCVSQPRVE,< -0.25
16,SASSCRGPADALAGEGNDCF,< -0.25
17,SATLCMTSRVSLLVRHTESR,< -0.25
18,SAVIVPRLGLMRSVGGYYVF,< -0.25
19,SAVPSRVYYRFRHGDPMWIV,< -0.25
20,SAVTLLESRNLERCDMTRPL,< -0.25
21,SAVVPRVGGDSGARARVLVC,< -0.25
22,SAWIYCPVRSIDVTDCISHN,< -0.25
23,SAY,< -0.25
24,SAYCAPCVSKDRVGTIVAGC,< -0.25
25,SAYGTFLAEVILR,< -0.25

row,Substance,growth estimate
1,SAYIPNLTEEWPGSLV,7.65
2,SCD,< -0.25
3,SCDERFKLVFL,< -0.25
4,SCDWAVKTACIPGAS,< -0.25
5,SCFASFWTGSVAASVLVSRV,< -0.25
6,SCFTISSNSGDTRLVCRGVG,< -0.25
7,SCGLYLG,< -0.25
8,SCGNANEKRLTRGRNGPGPH,< -0.25
9,SCHDPFAICSRSGY,< -0.25
10,SCIAR,< -0.25
11,SCITKQAICRA,< -0.25
12,SCKEIAKDCSLTPSSLCAHV,< -0.25
13,SCKHDAVLMAHCGRHMPGER,< -0.25
14,SCLLLPTCVDV,< -0.25
15,SCLTVGQEGIGTSSEANEAG,< -0.25
16,SCLVVFPSRSVIPEKAP,< -0.25
17,SCNAVQSQTSRDDICTTTRC,< -0.25
18,SCNLSECWDDLDPNPILSGG,< -0.25
19,SCPVRRTFRIF,< -0.25
20,SCQAQRQSSRSGKR,< -0.25
21,SCRCACNYSFGRGERGIGAR,< -0.25
22,SCRCTTNREPGYLCPKA,< -0.25
23,SCRKSVWSKA,< -0.25
24,SCRNKLASPKGGV,< -0.25
25,SCSARGLRPGSLKLFYVDSP,< -0.25

# Shown bar-delimited: entries from further up
row | Substance | growth estimate
1 | SAYIPNLTEEWPGSLV | 7.65
6 | SCFTISSNSGDTRLVCRGVG | < -0.25
9 | SCHDPFAICSRSGY | < -0.25
23 | SCRKSVWSKA | < -0.25

# As entered above:
# For growth estimate, SAPGWMGSGREGLLPSGRGT has < -0.25
# For growth estimate, SCRCTTNREPGYLCPKA has < -0.25
# For growth estimate, SARMM has < -0.25
# For growth estimate, RYWNFISNALSCLDAG has < -0.25

# The results go on:

row,Substance,growth estimate
1,SCSKRGVGLREGVSRQSQQA,< -0.25
2,SCSTVTRPRPCKARRLPLNR,< -0.25
3,SCTLGSAG,< -0.25
4,SCVETQDPCRHKALIVVS,-0.248
5,SCVG,< -0.25
6,SCYPSPSWLLSVPTSQLGSA,< -0.25
7,SCYVSGT,< -0.25
8,SDAFRRLLGI,-0.25
9,SDARMCPRQDLRKN,< -0.25
10,SDCATLWERNVHGSRQAKAD,< -0.25
11,SDCREGGRVIEGNTLRQL,< -0.25
12,SDEPRRITLDLPAPTYHEQL,< -0.25
13,SDFHGQLDKKGNLNV,< -0.25
14,SDGGQEA,< -0.25
15,SDGLEVKIPEGCNTSD,< -0.25
16,SDGLIVSY,< -0.25
17,SDHALIRQG,< -0.25
18,SDIEQYRTSDGRAHVEF,< -0.25
19,SDIIAVGMTPTGGVKAFADT,< -0.25
20,SDIMWRTVRRS,< -0.25
21,SDLRCLRHLTVP,< -0.25
22,SDMKRQMDES,< -0.25
23,SDNPSR,< -0.25
24,SDPERN,< -0.25
25,SDPLPKAGPTVKIEVRCRLH,< -0.25

row,Substance,growth estimate
1,SDQITFRSI,< -0.25
2,SDQQETIPICCSVCCAMGEI,< -0.25
3,SDRDE,< -0.25
4,SDREHRACENA,< -0.25
5,SDRLFMD,< -0.25
6,SDRLWEWGRLGTGITAAYGS,< -0.25
7,SDRTR,< -0.25
8,SDRWGRRWR,< -0.25
9,SDSLQ,< -0.25
10,SDTESLNKDHLIGRGKSLSQ,< -0.25
11,SDTLNRGYI,< -0.25
12,SDTPGRTGWECGCNQLTVPS,< -0.25
13,SDTPNSWLTTTWQTQAAARI,< -0.25
14,SDTSSQGLCVLAPVLV,< -0.25
15,SDTTGM,< -0.25
16,SDVM,< -0.25
17,SDVPPCSRTHVSTSPQHATS,< -0.25
18,SDYPGQRKSAAGTPLWIVGW,< -0.25
19,SEAASHRGVAFSTDSSRVN,< -0.25
20,SECPRSG,< -0.25
21,SEDIAARKARQLVNGTYTPP,< -0.25
22,SEDLGQEDRAT,< -0.25
23,SEEGRCGVPVIGAENNQSEH,< -0.25
24,SEENALDAVFTWQCPTSGKH,< -0.25
25,SEERGRALQIAHGAIYTHKT,< -0.25

# Looked up one by one from above:
row,Substance,growth estimate
14,SCLLLPTCVDV,< -0.25
2,RYCVITID,< -0.25
10,RWNCCVMVSIIY,< -0.25
10,SCIAR,< -0.25
14,SAGLLARKHA,< -0.25
10,SDCATLWERNVHGSRQAKAD,< -0.25

# (continued)

row,Substance,growth estimate
1,SEFLQNKGSILLARVGEKSP,< -0.25
2,SEFRL,< -0.25
3,SEG,< -0.25
4,SEGPVPKPELMHFFST,< -0.25
5,SEGQGLRAVPVSRPGWPGPV,< -0.25
6,SEGS,< -0.25
7,SEGYRR,< -0.25
8,SEHE,< -0.25
9,SEHFLQVVSPSPSR,< -0.25
10,SEKDEGLCTSWCSTPCNALD,< -0.25
11,SEKRRSGFVA,< -0.25
12,SEKSVRLNLPHRQESLIRLA,< -0.25
13,SENEIGGRVLPTGACGGDHP,< -0.25
14,SEPLP,< -0.25
15,SEPPASKEDFSRDINVTPVM,< -0.25
16,SEPPSHAPCHFVLINRACAS,< -0.25
17,SERLPASLDCRKLPGKKASH,< -0.25
18,SERNALARGGSVSIPVLPRR,-0.245
19,SERQRTGARG,< -0.25
20,SESHLLMFASR,< -0.25
21,SESSRTDAVYRQ,< -0.25
22,SETGTD,< -0.25
23,SETHLLHRDSSLGRVSSIRV,< -0.25
24,SETLVILKPLGSALTPISVS,< -0.25
